Test results published in PubChem BioAssay AID192 (DTP/NCI, 2004).
The list is a part of this screen's results and no random one: it covers a few groups of compounds. Other doses and runs of a compound may be missing. T/C gives the treated animals as a percentage of the vehicle group. For survival time, this PubChem deposit counts one and a half times the control or more as active, and values a quarter to a half above the control carry no call in these data; other NCI protocols may use other cut-offs. Some entries show no survivor count and are marked so; the dose need not have been tolerated. Schedules are NCI's codes, read here as Q, the interval in days (D) or hours (H), X, the number of doses. Some doses were run more than once; their values stand side by side, smallest first. Some metal complexes and salts are drawn in pieces, as in the source, so charges may not balance.

Tested on: BDF1 mice, B16 melanoma ip, median survival T/C
Test: NCI In Vivo Anticancer Drug Screen. Data for tumor model B16 Melanoma (intraperitoneal) in B6D2F1 (BDF1) mice
Details: T/C endpoint: median survival time, higher T/C = longer survival
Description: The antitumor activity of compounds was measured in mice bearing transplantable tumors. Survival or tumor size were measured and the results are expressed as the measurement made in the treated group (T) divided by the measurement made in the vehicle treated control group (C). The tumor model used in this assay is B16 Melanoma (intraperitoneal) in B6D2F1 (BDF1) mice

CN(CCCl)CCCl.O.O.O.[Cl][Ni+][Cl]
T/C (dose: 3.13 mg/kg/injection, schedule: Q01DX009 (ip), vehicle: saline): 107 % of control [survivor count not shown] | T/C (dose: 6.25 mg/kg/injection, schedule: Q01DX009 (ip), vehicle: saline): 107 % of control [survivor count not shown] | T/C (dose: 12.5 mg/kg/injection, schedule: Q01DX009 (ip), vehicle: saline): 105 % of control [survivor count not shown] | T/C (dose: 25.0 mg/kg/injection, schedule: Q01DX009 (ip), vehicle: saline): 125 % of control [survivor count not shown]

CN(CCCl)CCCl
T/C (dose: 0.04 mg/kg/injection, schedule: Q01DX009 (ip), vehicle: saline): 154 % of control [survivor count not shown] | T/C (dose: 0.06 mg/kg/injection, schedule: Q01DX009 (ip), vehicle: saline): 140 % of control [survivor count not shown] | T/C (dose: 0.08 mg/kg/injection, schedule: Q01DX009 (ip), vehicle: saline): 200 % of control [survivor count not shown] | T/C (dose: 0.1 mg/kg/injection, schedule: Q01DX009 (ip), vehicle: water): 144 % of control [survivor count not shown] | T/C (dose: 0.12 mg/kg/injection, schedule: Q01DX005 (ip), vehicle: water): 108 % of control [survivor count not shown] | T/C (dose: 0.12 mg/kg/injection, schedule: Q01DX009 (ip), vehicle: saline): 162 % of control [survivor count not shown] | T/C (dose: 0.13 mg/kg/injection, schedule: Q01DX009 (ip), vehicle: saline): 122 [survivor count not shown] and 128 % of control [survivor count not shown] | T/C (dose: 0.16 mg/kg/injection, schedule: Q01DX009 (ip), vehicle: saline): 180 % of control [survivor count not shown] | T/C (dose: 0.25 mg/kg/injection, schedule: Q01DX005 (ip), vehicle: water): 122 % of control [survivor count not shown] | T/C (dose: 0.25 mg/kg/injection, schedule: Q01DX009 (ip), vehicle: saline): 126 [survivor count not shown], 135 [survivor count not shown], 189 % of control [survivor count not shown] | T/C (dose: 0.25 mg/kg/injection, schedule: Q01DX009 (ip), vehicle: water): 172 % of control [survivor count not shown] | T/C (dose: 0.3 mg/kg/injection, schedule: Q01DX009 (ip), vehicle: water): 180 % of control [survivor count not shown] | T/C (dose: 0.5 mg/kg/injection, schedule: Q01DX005 (ip), vehicle: water): 116 % of control [survivor count not shown] | T/C (dose: 0.5 mg/kg/injection, schedule: Q01DX009 (ip), vehicle: saline): 169 [survivor count not shown] and 170 % of control [survivor count not shown] | T/C (dose: 0.5 mg/kg/injection, schedule: Q01DX009 (ip), vehicle: water): 209 % of control [survivor count not shown] | T/C (dose: 0.75 mg/kg/injection, schedule: Q01DX005 (ip), vehicle: water): 138 % of control [survivor count not shown] | T/C (dose: 1.0 mg/kg/injection, schedule: Q01DX005 (ip), vehicle: water): 125 % of control [survivor count not shown] | T/C (dose: 1.0 mg/kg/injection, schedule: Q01DX009 (ip), vehicle: saline): 185 % of control [survivor count not shown] | T/C (dose: 2.5 micrograms/kg/injection, schedule: Q01DX009 (ip), vehicle: saline): 123 % of control [survivor count not shown] | T/C (dose: 5.0 micrograms/kg/injection, schedule: Q01DX009 (ip), vehicle: saline): 130 % of control [survivor count not shown] | T/C (dose: 10.0 micrograms/kg/injection, schedule: Q01DX009 (ip), vehicle: saline): 111 % of control [survivor count not shown] | T/C (dose: 20.0 micrograms/kg/injection, schedule: Q01DX009 (ip), vehicle: saline): 116 % of control [survivor count not shown] | T/C (dose: 30.0 micrograms/kg/injection, schedule: Q01DX009 (ip), vehicle: saline): 175 % of control [survivor count not shown] | T/C (dose: 60.0 micrograms/kg/injection, schedule: Q01DX009 (ip), vehicle: saline): 195 % of control [survivor count not shown] | T/C (dose: 63.0 micrograms/kg/injection, schedule: Q01DX009 (ip), vehicle: saline): 157 % of control [survivor count not shown] | T/C (dose: 125.0 micrograms/kg/injection, schedule: Q01DX009 (ip), vehicle: saline): 217 [survivor count not shown] and 227 % of control [survivor count not shown] | T/C (dose: 250.0 micrograms/kg/injection, schedule: Q01DX009 (ip), vehicle: saline): 188 [survivor count not shown] and 222 % of control [survivor count not shown] | T/C (dose: 500.0 micrograms/kg/injection, schedule: Q01DX009 (ip), vehicle: saline): 154 % of control [survivor count not shown]
